# Data taken from PMC10876703.
# By UniProt entry, the sequences of proteins in these tests, tags left out.
# UniProt P30051: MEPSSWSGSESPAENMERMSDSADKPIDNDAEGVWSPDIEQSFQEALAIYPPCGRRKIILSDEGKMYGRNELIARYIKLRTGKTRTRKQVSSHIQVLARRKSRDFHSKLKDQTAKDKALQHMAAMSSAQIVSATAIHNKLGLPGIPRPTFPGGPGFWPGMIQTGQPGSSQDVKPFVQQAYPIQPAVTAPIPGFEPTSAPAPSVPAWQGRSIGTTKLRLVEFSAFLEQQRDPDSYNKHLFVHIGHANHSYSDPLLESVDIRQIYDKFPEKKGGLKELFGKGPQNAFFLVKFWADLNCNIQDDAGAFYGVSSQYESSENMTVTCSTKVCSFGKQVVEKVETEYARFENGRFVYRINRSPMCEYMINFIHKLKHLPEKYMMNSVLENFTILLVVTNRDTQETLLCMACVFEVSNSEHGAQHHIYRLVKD
# UniProt P46938: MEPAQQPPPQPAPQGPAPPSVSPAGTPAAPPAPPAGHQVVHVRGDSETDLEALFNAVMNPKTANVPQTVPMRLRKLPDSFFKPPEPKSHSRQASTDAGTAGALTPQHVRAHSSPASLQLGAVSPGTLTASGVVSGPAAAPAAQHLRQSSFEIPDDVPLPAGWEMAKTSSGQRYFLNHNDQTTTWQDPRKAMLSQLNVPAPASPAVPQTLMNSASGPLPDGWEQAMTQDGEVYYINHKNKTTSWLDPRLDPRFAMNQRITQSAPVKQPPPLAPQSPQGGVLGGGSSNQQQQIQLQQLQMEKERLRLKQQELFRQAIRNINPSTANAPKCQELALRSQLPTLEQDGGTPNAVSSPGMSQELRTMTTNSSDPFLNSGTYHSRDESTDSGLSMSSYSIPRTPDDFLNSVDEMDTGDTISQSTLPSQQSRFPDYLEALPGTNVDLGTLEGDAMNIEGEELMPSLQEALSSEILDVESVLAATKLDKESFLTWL
# These are yes or no findings as the source states them, for the method shown. Binding seen in cells or lysates may run through a third protein. Some results given as binding are weak or reduced against the parent protein; the word gives no strength.
# Experiments:
# [1] = target: TEA domain transcription factor 1 (TEAD1) (mouse (endogenous in neonatal mouse cardiac fibroblasts and mouse heart)) (UniProt P30051); assay: co-IP; co-immunoprecipitation of TEAD1 with YAP or BRD4 after treatment with VT103 (Supplementary Fig. 13b, c)
# [2] = target: TEA domain transcription factor 1 (TEAD1) (mouse (endogenous in neonatal mouse cardiac fibroblasts and mouse heart)) (UniProt P30051); assay: co-IP; TEAD1/YAP co-immunoprecipitation in vitro (NMCFs) and in vivo (mouse heart), with or without the TEAD1 inhibitor VT103
substance,measurement,setting,value
Yes-associated protein (YAP) (from UniProt P46938 1-488),binding,[1],no binding (condition: after treatment with VT103)
same,binding,[2],binds
